Results on one substance are retold here after PMC11582362.

No constants are given. Whether binding was seen depends on the method and setting. In cells and extracts the contact can be indirect. Binding can be weak; no strength is given. Sequences can lack the tags named with a protein.

The target in this assay is T1, full length ADAR1 p110, wild type (FLAG-tagged and HA-tagged copies) (human) (UniProt P55265).
T1 sequence: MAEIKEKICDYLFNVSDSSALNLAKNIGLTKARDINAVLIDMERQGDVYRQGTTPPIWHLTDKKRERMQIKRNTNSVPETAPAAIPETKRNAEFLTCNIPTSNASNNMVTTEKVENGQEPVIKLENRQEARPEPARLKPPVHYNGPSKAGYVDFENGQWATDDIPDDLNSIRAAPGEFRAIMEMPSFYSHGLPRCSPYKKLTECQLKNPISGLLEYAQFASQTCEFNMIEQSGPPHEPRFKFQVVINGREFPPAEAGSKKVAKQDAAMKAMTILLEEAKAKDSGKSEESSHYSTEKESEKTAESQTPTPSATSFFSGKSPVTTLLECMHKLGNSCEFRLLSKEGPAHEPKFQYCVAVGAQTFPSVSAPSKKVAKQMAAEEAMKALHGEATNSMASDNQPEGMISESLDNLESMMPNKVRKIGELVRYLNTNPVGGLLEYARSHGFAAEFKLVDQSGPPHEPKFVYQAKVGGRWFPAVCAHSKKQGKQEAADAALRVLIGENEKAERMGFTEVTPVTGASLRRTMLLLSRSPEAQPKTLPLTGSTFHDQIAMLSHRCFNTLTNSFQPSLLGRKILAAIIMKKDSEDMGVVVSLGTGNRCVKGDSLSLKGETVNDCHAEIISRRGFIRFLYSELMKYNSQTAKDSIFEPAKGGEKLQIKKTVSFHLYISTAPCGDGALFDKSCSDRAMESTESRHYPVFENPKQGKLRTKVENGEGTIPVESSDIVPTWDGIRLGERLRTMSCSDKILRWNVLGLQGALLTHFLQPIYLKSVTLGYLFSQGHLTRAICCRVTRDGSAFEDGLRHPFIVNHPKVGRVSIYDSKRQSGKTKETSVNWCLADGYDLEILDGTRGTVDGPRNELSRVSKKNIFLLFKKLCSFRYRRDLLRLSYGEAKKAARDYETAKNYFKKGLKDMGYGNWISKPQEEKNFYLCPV
Description: co-IP; FLAG- and HA-tagged ADAR1 variants co-expressed in HEK293T cells; lysate treated with RNase A; FLAG M2 magnetic beads, 2 h at 4 °C, IP buffer 25 mM Tris-HCl pH 7.4, 150 mM NaCl, 1 mM EDTA, 1% NP-40, 5% glycerol; western blot with anti-HA. (In general: A western blot detects proteins with antibodies after separation by electrophoresis.)

As to “HA-tagged ADAR1 without a deaminase domain (human) (domain or fragment)”, the binding entry is listed as “binds”.
